Some of these results come from one statement about several compounds together. Where a SMILES comes first, the peptide text is derived from it.
System: chorionic post-proline peptidase
Experiment: Competitive inhibition of mammalian GnRH degradation by chorionic post-proline peptidase (enzymatic activity assay, RIA of remaining substrate)
Conditions: for fold less active in the inhibition of GnRH degradation by chorionic post-proline peptidase: compared to GnRH; for relative potency of inhibition of chorionic post-proline peptidase activity compared to that for GnRH: substrate mammalian GnRH, GnRH = 1

Compound	fold less active in the inhibition of GnRH degradation by chorionic post-proline peptidase	relative potency of inhibition of chorionic post-proline peptidase activity compared to that for GnRH	stability compared to GnRH in the presence of post-proline peptidase activity (fold more stable than GnRH)
Im-btl-D-His(6)-GnRH-ethylamide	greater than 200 fold	< 0.005	
N=C(N)NCCC[C@@H](NC(=O)[C@H](Cc1c[nH]cn1)NC(=O)[C@H](CO)NC(=O)[C@H](Cc1c[nH]c2ccccc12)NC(=O)[C@H](Cc1c[nH]cn1)NC(=O)[C@@H]1CCC(=O)N1)C(=O)N[C@@H](Cc1c[nH]c2ccccc12)C(=O)N[C@@H](Cc1ccc(O)cc1)C(=O)N1CCC[C@H]1C(=O)NNC(N)=O [D-Arg(6)-Chicken II GnRH-aza-Gly(10)-amide] (HELM PEPTIDE1{[Glp].H.W.S.H.[dR].W.Y.P.[O=C(NN[*:1])[*:2]].[am]}$$$$V2.0)	greater than 200 fold	< 0.005	greater than 200 fold

Source: patent US7834141B1, “Non-mammalian GnRH analogs and uses thereof in tumor cell growth regulation and cancer therapy” (priority 2000, dated 2010)
